Experimental findings from the supplement of paper PMC12819154, “High-throughput peptide-centric local stability assay extends protein–ligand identification to membrane proteins, tissues and bacteria” (Nature Structural & Molecular Biology, 2025) are described below.

The chains behind the UniProt entries cited, without tags or fusion partners. Where a name states a change or a piece, a line headed by the entry shows the natural chain unless it says otherwise.
UniProt P13797: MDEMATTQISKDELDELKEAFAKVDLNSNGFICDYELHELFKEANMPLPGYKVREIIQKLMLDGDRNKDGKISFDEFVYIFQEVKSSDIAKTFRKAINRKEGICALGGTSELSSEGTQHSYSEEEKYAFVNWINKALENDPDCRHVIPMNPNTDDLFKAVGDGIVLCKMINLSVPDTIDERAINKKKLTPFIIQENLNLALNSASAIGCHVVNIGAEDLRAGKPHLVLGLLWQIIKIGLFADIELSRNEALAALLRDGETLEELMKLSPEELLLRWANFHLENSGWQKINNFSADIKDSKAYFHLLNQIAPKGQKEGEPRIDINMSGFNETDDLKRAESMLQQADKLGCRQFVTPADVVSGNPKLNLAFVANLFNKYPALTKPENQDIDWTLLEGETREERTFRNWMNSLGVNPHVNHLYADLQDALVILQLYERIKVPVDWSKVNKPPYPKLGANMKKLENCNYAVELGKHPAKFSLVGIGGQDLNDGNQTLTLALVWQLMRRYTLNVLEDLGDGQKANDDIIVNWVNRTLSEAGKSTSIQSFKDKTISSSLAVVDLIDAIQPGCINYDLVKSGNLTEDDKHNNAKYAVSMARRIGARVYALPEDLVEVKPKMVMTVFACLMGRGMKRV
UniProt P12694: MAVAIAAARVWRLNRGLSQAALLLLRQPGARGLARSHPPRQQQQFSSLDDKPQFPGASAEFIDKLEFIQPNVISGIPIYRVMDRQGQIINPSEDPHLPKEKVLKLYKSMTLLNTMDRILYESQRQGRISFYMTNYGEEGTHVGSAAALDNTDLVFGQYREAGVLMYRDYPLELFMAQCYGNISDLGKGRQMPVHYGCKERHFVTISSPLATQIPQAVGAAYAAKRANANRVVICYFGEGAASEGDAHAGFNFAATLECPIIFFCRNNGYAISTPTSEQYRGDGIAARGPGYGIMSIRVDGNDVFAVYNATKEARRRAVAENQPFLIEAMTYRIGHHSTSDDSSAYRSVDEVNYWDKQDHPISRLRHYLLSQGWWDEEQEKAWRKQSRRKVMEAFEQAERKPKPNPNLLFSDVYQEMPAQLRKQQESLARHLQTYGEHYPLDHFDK
UniProt P13489: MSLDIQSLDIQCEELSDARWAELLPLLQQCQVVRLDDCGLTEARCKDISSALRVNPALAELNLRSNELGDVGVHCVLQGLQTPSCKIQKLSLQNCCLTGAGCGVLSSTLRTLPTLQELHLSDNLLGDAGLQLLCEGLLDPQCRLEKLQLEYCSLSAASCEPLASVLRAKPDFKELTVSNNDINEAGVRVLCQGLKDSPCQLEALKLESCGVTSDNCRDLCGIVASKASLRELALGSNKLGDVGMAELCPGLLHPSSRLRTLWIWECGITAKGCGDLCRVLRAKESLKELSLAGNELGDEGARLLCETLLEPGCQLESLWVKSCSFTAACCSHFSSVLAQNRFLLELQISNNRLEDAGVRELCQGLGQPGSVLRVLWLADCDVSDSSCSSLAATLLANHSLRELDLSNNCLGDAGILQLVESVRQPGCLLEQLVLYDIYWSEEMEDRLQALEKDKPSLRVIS
UniProt P11277, whole entry: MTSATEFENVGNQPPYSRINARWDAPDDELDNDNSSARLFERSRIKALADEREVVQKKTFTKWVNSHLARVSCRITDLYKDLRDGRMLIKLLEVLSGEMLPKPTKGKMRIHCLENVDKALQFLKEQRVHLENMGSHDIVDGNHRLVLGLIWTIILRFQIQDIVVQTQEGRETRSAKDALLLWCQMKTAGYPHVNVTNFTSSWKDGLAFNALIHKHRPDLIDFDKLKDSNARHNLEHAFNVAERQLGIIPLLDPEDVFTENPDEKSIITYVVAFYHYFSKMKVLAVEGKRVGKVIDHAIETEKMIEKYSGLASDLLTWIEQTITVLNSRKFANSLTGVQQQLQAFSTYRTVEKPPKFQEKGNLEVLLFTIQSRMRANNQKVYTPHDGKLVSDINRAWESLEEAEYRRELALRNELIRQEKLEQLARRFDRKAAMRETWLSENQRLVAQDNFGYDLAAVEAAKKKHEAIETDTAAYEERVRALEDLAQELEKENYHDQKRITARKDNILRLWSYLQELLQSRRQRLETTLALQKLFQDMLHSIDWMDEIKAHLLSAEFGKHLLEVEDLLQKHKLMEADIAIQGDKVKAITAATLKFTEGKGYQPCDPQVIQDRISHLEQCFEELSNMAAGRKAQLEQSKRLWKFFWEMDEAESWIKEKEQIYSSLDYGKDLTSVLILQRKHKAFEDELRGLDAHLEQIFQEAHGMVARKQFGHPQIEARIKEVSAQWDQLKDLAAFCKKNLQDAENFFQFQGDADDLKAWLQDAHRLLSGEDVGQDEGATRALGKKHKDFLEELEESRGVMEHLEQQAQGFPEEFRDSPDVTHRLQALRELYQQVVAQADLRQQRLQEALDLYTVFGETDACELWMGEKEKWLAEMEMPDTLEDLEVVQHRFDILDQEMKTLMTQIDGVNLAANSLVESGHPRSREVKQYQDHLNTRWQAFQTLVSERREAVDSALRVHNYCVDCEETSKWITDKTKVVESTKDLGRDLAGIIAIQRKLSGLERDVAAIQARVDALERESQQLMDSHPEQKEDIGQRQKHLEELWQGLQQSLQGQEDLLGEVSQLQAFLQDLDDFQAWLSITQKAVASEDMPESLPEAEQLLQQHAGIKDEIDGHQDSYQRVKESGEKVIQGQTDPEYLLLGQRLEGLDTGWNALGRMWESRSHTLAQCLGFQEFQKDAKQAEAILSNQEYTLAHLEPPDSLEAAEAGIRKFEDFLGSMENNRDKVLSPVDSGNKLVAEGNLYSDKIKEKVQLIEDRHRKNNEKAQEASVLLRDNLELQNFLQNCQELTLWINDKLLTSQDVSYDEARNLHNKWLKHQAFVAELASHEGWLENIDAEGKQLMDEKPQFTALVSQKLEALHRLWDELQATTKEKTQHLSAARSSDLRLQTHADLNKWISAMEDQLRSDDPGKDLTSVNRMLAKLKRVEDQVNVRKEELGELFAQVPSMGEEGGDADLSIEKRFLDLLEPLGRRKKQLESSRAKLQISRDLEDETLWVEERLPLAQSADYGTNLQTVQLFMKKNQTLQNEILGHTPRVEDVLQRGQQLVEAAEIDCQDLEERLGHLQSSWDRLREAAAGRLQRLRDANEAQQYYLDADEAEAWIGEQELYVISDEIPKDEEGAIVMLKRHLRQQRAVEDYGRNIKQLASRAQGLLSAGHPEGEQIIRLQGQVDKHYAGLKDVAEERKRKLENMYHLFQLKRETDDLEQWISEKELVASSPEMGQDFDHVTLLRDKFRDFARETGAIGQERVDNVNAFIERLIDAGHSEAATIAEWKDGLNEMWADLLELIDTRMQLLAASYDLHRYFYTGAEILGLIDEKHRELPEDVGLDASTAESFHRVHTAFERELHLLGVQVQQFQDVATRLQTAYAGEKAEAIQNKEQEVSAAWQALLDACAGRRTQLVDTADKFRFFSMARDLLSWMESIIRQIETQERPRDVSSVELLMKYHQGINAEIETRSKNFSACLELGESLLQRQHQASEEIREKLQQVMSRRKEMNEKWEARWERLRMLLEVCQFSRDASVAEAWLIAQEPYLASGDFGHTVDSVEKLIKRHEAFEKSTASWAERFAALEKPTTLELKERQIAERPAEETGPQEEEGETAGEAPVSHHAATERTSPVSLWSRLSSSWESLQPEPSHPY
UniProt P04843: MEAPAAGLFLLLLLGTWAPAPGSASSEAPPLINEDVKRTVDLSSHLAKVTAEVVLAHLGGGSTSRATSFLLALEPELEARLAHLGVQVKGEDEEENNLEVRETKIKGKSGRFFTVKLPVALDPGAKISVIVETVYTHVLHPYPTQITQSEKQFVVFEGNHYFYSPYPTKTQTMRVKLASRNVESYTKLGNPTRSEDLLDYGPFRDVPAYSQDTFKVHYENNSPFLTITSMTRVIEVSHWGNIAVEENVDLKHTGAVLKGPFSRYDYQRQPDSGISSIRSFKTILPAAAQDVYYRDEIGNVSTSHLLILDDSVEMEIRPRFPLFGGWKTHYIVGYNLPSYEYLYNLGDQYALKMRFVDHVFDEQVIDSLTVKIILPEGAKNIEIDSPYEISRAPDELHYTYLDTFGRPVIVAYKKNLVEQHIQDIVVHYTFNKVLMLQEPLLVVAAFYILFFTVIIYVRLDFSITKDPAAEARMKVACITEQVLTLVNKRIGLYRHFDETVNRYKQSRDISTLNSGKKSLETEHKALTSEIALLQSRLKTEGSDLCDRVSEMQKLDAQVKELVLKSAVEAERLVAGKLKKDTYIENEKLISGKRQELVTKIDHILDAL
UniProt P08621, whole entry: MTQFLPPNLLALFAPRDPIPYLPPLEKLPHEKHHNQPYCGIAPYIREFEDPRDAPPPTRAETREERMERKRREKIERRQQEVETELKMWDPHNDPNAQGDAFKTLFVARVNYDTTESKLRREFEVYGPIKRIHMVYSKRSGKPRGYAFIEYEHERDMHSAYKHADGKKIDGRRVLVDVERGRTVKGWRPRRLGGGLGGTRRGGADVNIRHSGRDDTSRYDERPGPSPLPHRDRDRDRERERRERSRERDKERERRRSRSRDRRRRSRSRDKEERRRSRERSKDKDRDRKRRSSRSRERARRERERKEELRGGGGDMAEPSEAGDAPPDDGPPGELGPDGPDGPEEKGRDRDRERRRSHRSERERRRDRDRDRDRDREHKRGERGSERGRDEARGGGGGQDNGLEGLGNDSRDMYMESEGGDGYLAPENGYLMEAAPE
UniProt P05455: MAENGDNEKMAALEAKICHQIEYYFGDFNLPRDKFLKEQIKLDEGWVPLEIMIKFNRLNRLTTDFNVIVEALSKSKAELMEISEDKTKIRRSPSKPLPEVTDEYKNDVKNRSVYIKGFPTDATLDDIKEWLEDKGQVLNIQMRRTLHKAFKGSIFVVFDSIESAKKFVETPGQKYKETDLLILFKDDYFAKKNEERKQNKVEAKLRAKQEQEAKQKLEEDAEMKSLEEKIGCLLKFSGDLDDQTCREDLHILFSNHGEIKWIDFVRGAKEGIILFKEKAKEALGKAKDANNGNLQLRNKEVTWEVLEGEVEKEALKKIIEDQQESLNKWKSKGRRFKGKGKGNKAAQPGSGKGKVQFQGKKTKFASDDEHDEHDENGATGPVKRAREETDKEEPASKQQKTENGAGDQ
UniProt P0C1Z6, whole entry: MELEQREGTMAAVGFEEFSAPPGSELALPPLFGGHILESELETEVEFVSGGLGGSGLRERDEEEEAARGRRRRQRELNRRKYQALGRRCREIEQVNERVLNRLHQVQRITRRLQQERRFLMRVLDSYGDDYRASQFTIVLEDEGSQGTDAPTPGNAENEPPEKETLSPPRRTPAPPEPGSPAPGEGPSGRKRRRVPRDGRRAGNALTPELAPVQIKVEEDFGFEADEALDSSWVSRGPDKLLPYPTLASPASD
UniProt P13984, whole entry: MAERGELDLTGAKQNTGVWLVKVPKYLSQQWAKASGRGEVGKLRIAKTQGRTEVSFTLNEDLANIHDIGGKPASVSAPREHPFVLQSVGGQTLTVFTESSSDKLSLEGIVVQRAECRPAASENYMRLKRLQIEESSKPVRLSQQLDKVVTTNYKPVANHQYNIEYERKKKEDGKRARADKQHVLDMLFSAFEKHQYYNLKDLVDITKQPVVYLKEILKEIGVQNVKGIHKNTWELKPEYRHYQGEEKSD
UniProt P0C2W1: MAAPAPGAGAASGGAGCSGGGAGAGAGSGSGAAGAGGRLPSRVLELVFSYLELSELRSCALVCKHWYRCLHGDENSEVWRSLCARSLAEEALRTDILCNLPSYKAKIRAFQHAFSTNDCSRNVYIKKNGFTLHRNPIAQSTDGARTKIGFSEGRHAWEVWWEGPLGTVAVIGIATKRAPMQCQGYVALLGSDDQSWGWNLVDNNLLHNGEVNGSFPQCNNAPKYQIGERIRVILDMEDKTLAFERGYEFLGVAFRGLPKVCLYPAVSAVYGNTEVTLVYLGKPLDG
UniProt P09960: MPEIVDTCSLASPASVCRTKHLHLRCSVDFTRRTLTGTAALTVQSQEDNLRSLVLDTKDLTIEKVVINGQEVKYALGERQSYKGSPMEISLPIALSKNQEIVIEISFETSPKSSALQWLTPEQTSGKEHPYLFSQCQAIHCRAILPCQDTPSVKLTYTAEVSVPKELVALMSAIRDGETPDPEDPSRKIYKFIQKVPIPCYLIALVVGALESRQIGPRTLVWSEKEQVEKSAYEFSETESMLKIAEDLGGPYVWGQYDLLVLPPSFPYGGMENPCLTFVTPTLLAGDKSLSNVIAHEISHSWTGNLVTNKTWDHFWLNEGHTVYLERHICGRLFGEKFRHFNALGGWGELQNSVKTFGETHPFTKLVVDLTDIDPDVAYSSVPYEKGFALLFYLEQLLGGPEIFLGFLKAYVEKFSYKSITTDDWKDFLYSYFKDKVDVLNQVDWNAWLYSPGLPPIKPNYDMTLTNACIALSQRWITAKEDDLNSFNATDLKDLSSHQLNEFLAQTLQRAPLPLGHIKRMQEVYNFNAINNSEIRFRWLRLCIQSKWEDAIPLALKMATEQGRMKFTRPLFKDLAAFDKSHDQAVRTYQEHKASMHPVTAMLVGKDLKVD

Compound in the test: Cc1nc(Nc2ncc(C(=O)Nc3c(C)cccc3Cl)s2)cc(N2CCN(CCO)CC2)n1 [dasatinib]
In words: log2 fold change of tryptic peptide abundance, ligand vs vehicle (limited proteolysis) (log2 ratio); higher = more trypsin-susceptible (destabilized). The note with it: ligand concentration: 5 uM; sample: K562 cleared lysate.

The list shows a part of the results. Most values lie at the level of the controls, where differences are scatter.

Take “UniProt P0CG47 (peptide sequence: EGIPPDQQR, peptide start residue: 34)”: the log2 fold change stood at 0.214.

Turning to “CD55 (peptide sequence: GSGTTSGTTR, peptide start residue: 348) (UniProt P08174)”, the log2 fold change is -0.327.

For “PLS3 (peptide sequence: ALENDPDCR, peptide start residue: 133) (UniProt P13797)”, the log2 fold change was determined as 0.0502.

In the case of “DBT (peptide sequence: QTGAILPPSPK, peptide start residue: 212) (UniProt P11182)”, the log2 fold change is -0.622.

For the target “LAMB1 (peptide sequence: CGGPGCGGLVTVAHNAWQK, peptide start residue: 1425) (UniProt P07942)”, the log2 fold change came out at 0.213.

For the target “BCKDHA (peptide sequence: KVMEAFEQAER, peptide start residue: 389) (UniProt P12694)”, the log2 fold change was -1.24.

“ASNS (peptide sequence: ELYLFDVLR, peptide start residue: 396) (UniProt P08243)”: the log2 fold change came out at 0.287.

Turning to “RNH1 (peptide sequence: LDDCGLTEARCKDISSALR, peptide start residue: 35) (UniProt P13489)”, the log2 fold change came to 0.257.

With “TOP1 (peptide sequence: KVPEPDNKK, peptide start residue: 184) (UniProt P11387)”, the log2 fold change was -0.203.

For the target “SPTB (peptide sequence: WISAMEDQLR, peptide start residue: 1394) (UniProt P11277)”, the log2 fold change came to 0.0639.

Turning to “RPN1 (peptide sequence: LKTEGSDLCDR, peptide start residue: 537) (UniProt P04843)”, the log2 fold change worked out at 0.254.

Turning to “SNRNP70 (peptide sequence: REFEVYGPIKR, peptide start residue: 121) (UniProt P08621)”, the log2 fold change was determined as 0.281.

In the case of “GPI (peptide sequence: MIPCDFLIPVQTQHPIRK, peptide start residue: 401) (UniProt P06744)”, the log2 fold change was -0.252.

“SSB (peptide sequence: DANNGNLQLR, peptide start residue: 288) (UniProt P05455)”: the log2 fold change was determined as 0.111.

With “AHSG (peptide sequence: CDSSPDSAEDVR, peptide start residue: 132) (UniProt P02765)”, the log2 fold change came to 0.12.

In the case of “ETFA (peptide sequence: VAAKLEVAPISDIIAIK, peptide start residue: 123) (UniProt P13804)”, the log2 fold change was determined as 1.05.

As for “TFPT (peptide sequence: RTPAPPEPGSPAPGEGPSGR, peptide start residue: 171) (UniProt P0C1Z6)”, the log2 fold change is -0.228.

Take “GTF2F2 (peptide sequence: LQIEESSKPVR, peptide start residue: 130) (UniProt P13984)”: the log2 fold change was -0.176.

“CAPNS1 (peptide sequence: TDGFGIDTCR, peptide start residue: 136) (UniProt P04632)”: the log2 fold change is -0.0982.

In the case of “PFKM (peptide sequence: VLVVHDGFEGLAK, peptide start residue: 433) (UniProt P08237)”, the log2 fold change stood at 0.289.

On to “CCDC175 (peptide sequence: KHARWTAK, peptide start residue: 465) (UniProt P0C221)”, for which the log2 fold change was -0.242.

For the target “FBXO45 (peptide sequence: TDILCNLPSYK, peptide start residue: 94) (UniProt P0C2W1)”, the log2 fold change came out at 0.126.

As to “P4HA1 (peptide sequence: ATISNPITGDLETVHYR, peptide start residue: 363) (UniProt P13674)”, the log2 fold change stood at 0.775.

As for “COL1A1 (peptide sequence: QGPSGASGER, peptide start residue: 985) (UniProt P02452)”, the log2 fold change came to 0.144.

Consider “LTA4H (peptide sequence: WEDAIPLALK, peptide start residue: 548) (UniProt P09960)”, for which the log2 fold change is -0.378.
